Data as given in article PMC11994786.

Chains of the proteins cited; added tags and fusions are not shown.
UniProt P69566: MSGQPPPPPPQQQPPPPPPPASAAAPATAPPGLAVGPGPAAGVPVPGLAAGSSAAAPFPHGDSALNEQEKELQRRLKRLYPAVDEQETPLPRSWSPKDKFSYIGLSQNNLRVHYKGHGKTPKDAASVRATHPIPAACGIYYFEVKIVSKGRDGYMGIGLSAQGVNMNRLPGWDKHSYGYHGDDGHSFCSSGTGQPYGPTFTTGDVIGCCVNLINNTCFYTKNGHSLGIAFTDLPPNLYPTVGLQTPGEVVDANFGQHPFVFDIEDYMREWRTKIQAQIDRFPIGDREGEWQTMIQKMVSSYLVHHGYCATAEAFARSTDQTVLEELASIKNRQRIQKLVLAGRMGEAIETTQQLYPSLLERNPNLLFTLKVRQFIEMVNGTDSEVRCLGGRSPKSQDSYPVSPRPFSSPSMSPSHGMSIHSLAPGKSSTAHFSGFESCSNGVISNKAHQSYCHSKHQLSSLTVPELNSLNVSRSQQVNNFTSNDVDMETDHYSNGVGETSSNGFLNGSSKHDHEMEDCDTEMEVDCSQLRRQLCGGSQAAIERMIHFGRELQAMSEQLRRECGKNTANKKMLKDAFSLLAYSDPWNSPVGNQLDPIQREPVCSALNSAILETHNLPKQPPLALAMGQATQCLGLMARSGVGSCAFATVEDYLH

B1: Cwc22 (CWC22 Spliceosome Associated Protein Homolog) (protein, UniProt Q8C5N3 1-908)
chain: MKSSVAHMKSSGHNRRETHSSYRRSSSPEDRYTEQERSPRDRGYSDYSRSDYERSRRGYSYDDSMESRSRDREKRRERERDADHRKRSRKSPSPDRSPARGGGQSSPQEEPTWKKKKDELDPLLTRTGGAYIPPAKLRMMQEQITDKSSLAYQRMSWEALKKSINGLINKVNISNISIIIQELLQENIVRGRGLLSRSVLQAQSASPIFTHVYAALVAIINSKFPQIGELILKRLILNFRKGYRRNDKQLCLTASKFVAHLINQNVAHEVLCLEMLTLLLERPTDDSVEVAIGFLKECGLKLTQVSPRGINAIFERLRNILHESEIDKRVQYMIEVMFAVRKDGFKDHPVILEGLDLVEEDDQFTHMLPLEDDYNPEDVLNVFKMDPNFMENEEKYKAIKKEILDEGDSDSNTDQGAGSSEDEEEEDEEEEGEDEEGGQKVTIHDKTEINLVSFRRTIYLAIQSSLDFEECAHKLLKMEFAESQTKELCNMILDCCAQQRTYEKFFGLLAGRFCMLKKEYMESFESIFKEQYDTIHRLETNKLRNVAKMFAHLLYTDSLPWSVLECIKLSEETTTSSSRIFVKIFFQELCEYMGLPKLNARLKDETLQPFFEGLLPRDNPRNTRFAINFFTSIGLGGLTDELREHLKNTPKVIVAQKPEAEQKKPALTSSSSESSSASDSSDSESDSSESSSESSSDASDSSSSSSTQSSTSGITAHSAKGTRKKRQGKARGEEVDKLARGHQALERRREGGREDQRHQEGRTERARSERRRAQNSRDADWRDPLAKHIDDRSHENSHSRVGNGREQGSHREPEDRHGEPKKRRERRDSFSENEKQRSRNQDSDNVRRKDRSKSRERSRRHSGHKGDDARCQNSAERRWEKPGRRPEQSRESKRSQDRRREKSPTTQK
B2: Slc25a25 (protein, UniProt A2ASZ8 1-469)
chain: MLCLCLYVPIAGAAQTEFQYFESKGLPAELKSIFKLSVFIPSQEFSTYRQWKQKIVQAGDKDLDGQLDFEEFVHYLQDHEKKLRLVFKSLDKKNDGRIDAQEIMQSLRDLGVKISEQQAEKILKSMDKNGTMTIDWNEWRDYHLLHPVENIPEIILYWKHSTIFDVGENLTVPDEFTVEERQTGMWWRHLVAGGGAGAVSRTCTAPLDRLKVLMQVHASRSNNMCIVGGFTQMIREGGAKSLWRGNGINVLKIAPESAIKFMAYEQMKRLVGSDQETLRIHERLVAGSLAGAIAQSSIYPMEVLKTRMALRKTGQYSGMLDCARRILAKEGVAAFYKGYIPNMLGIIPYAGIDLAVYETLKNTWLQRYAVNSADPGVFVLLACGTISSTCGQLASYPLALVRTRMQAQASIEGAPEVTMSSLFKQILRTEGAFGLYRGLAPNFMKVIPAVSISYVVYENLKITLGVQSR
B3: Gtf2e2 (General transcription factor 2e2) (protein, UniProt Q9D902 1-292)
chain: MDPSLLRDRELFKKRALSTPVVEKRAVPSESPSSSSSKKKKAKVEHGGSSGSKQNSDHNNGSFNLKALSGSSGYKFGVLAKIVNYMKTRHQRGDTHPLTLEEILDETQHLDIGLKQKQWLMTEALVNNPKIEVVDGKYAFKPKYNLKDKKALLRLLDNHDQRGLGGILLEDIEEGLPNSQKAVKALGDQILFVSRPDKKKILFFNDKSCQFSVDEEFQKLWRSVTVDSMDEEKIEEYLKRQGISSMQESGPKKVASIQRRKKPASQKKRRFKTHNEHLAGVLKDYSDITPGK
B4: Idh3g (protein, UniProt P70404 40-393)
chain: SSQQTIPPSAKYGGRHTVTMIPGDGIGPELMLHVKSVFRHACVPVDFEEVHVSSNADEEDIRNAIMAIRRNRVALKGNIETNHNLPPSHKSRNNILRTSLDLYANVIHCKSLPGVVTRHKDIDILIVRENTEGEYSSLEHESVAGVVESLKIITKAKSLRIAEYAFKLAQESGRKKVTAVHKANIMKLGDGLFLQCCREVAAHYPQITFDSMIVDNTTMQLVSRPQQFDVMVMPNLYGNIVNNVCAGLVGGPGLVAGANYGHVYAVFETATRNTGKSIANKNIANPTATLLASCMMLDHLKLHSYATSIRKAVLASMDNENMHTPDIGGQGTTSQAIQDIIRHIRIINGRAVEA
B5: Med30 (Mediator 30) (protein, UniProt Q9CQI9 1-178)
chain: MSTPPLAPTGMASGPFGGPQAQQAAREVNTATLCRIGQETVQDIVYRTMEIFQLLRNMQLPNGVTYHTGTYQDRLTKLQDHLRQLSILFRKLRLVYDKCNENCGGMDPIPVEQLIPYVDEDGSKNDDRAGPPRFASEERREIVEVNKKLKQKNQQLKQIMDQLRNLIWDINAMLAMRN
B6: Uqcrc2 (protein, UniProt Q9DB77 15-453)
chain: SLKVAPKVKTSAAPGGVPLQPQDLEFTKLPNGLVIASLENYAPLSRIGLFVKAGSRYEDSNNLGTSHLLRLASSLTTKGASSFKITRGIEAVGGKLSVTATRENMAYTVEGIRSDIEILMEFLLNVTTAPEFRRWEVAALRSQLKIDKAVAFQNSQTRIIENLHDVAYKNALANPLYCPDYRMGKITSEELHYFVQNHFTSARMALVGLGVSHSVLKQVAEQFLNMRGGLGLAGAKAKYRGGEIREQNGDNLVHAAIVAESAAIGNAEANAFSVLQHLLGAGPHIKRGNNTTSLLSQSVAKGSHQPFDVSAFNASYSDSGLFGIYTISQAAAAGEVINAAYNQVKAVAQGNLSSADVQAAKNKLKAGYLMSVETSEGFLSEIGSQALAAGSYMPPSTVLQQIDSVADADVVKAAKKFVSGKKSMAASGNLGHTPFLDEL
B7: Eloa (Elongin a) (protein, UniProt Q8CB77 1-773)
chain: MAAESALQVVEKLQARLAANPDPKKLLKYLKKLSILPITVDILVETGVGKTVNSFRKHEQVGNFARDLVAQWKKLVPVERNSEAEDQDFEKNNSRKRPRDALQREEELEGNYQESWKPSGSRSYSPEHRQKKHKKLSEPERPHKVAHSHEKRDERKRCHKVSPPYSSDPESSDYGHVQSPPPSSPHQMYTDLSRSPEEDQEPIISHQKPGKVHSNTFQDRLGVSHLGEQGKGAVSHHKQHRSSHKEKHPADAREDEKISAVSREKSHKASSKEESRRLLSGDSAKEKLPSSVVKKDKDREGSSLKKKFSPALDVASDNHFKKPKHKDSEKAKSDKNKQSVDGVDSGRGTGDPLPKAKEKVPNHLKAQEGKVRTNADGKSAGPLHPKAEETDVDDEFERPTMSFESYLSYDQPRKKKKKVVKTSSTALGEKGLKKKDSKSTSKNLNSAQKLPKVNENKSEKLQPAGAEPTRPRKVPTDVLPALPDIPLPAIHANYRPLPSLELIPSFQPKRKAFSSPQEEEEAGFTGRRMNSKMQVYSGSKCAYLPKMMTLHQQCIRVLKNNIDSIFEVGGVPYSVLEPVLERCTPDQLYRIEECNHVLIEETDQLWKVHCHRDFKEERPEEYESWREMYLRLQDAREQRLRLLTNNIRSAHANKPKGRQAKMAFVNSVAKPPRDVRRRQEKFGTGGAAVPEKVRIKPAPYTTGSSHVPASNSSSNFHSSPEELAYDGPSTSSAHLAPVASSSVSYDPRKPAVKKIAPMMAKTIKAFKNRFSRR
B8: Kansl1 (Kat8 regulatory NSL complex subunit 1) (protein, UniProt Q80TG1 1-1036)
chain: MAAMAPALTDAAAEAHHIRFKLAPPSSTLSPGSAENNGNANILISANGTKRKAIAAEDPSLDFRNNPTKEDLGKLQPLVASYLCSDVTSVPAKESLKLQGVFSKQTVLKSHPLLSQSYELRAELLGRQPVLEFSLENLRTMNTSGQTALPQAPVNGLAKKLTKSSTHSDHDNSSSLNGGKRSLTSSSLQGGEVGGPDSGNLKGGMTNCTLPHRSLDIQHTTLYSNNSTANKSSVNSMDQPALQGSSRLSPSTDSSSNLTNVKLEVKKSPLSSILFSALDSDTRITALLRRQADIEIRARRLQKRLQVVQAKQVERHLQHQLGGFLETTLSKLPNLESLRSRSQLMLTRKAEAALRKAASESATSEGLSNFLKSDSISEELERFTASGIANLRCSEQAFDSDVTDSSSGGESDIEEEELTRADPEQCHVPLKRRSEWRWAADRAAIVSRWNWLQAHVSDLEYRIRQQTDIYKQIRANKGLIVLGEAPFPDHTTDLLSLSSEVKTDHGRDKLIESVSQPSENHGILVSNITESLSTKSCGAPRPVNGVVNSLQPVLADQVPGDSSDAEEQLHKKQRLNLVSSSDGTCVAARTRPVLTCKKRRLVRPSSIVPLSKKVHRNVRSGCDVNPSCALCGSGSVNTMPPEIHYEAPLLERLSQLDSCVHPVLAFPDDVPTSLHFQSMLKSQWQNKPFDKIKPTKKFSLKHRATMPCSLSDPVRKDRHKLVNSFLTTAMLKHHTDMSSPSYLTATHHPPHSPLVRQLSTSSDTSTPTSSGSQVAASTSQPVRRRRGESSFDINNIVIPMSVAATTRVEKLQYKEILTPSWREVDVQSLKGSPDEENEEIEDLSDAAFAALHAKCEEMERARWLWTTSVPPQRRGSRSYRSSDGRTTPQLGSANPSTPQPASPDVSSSHSLSEFSHGQSPRSPISPELHSAPLTPVARDSLRHLASEDTRCSTPELGLDEQSVQPWERRTFPLAYSPQAECEEQLDAQDTAARCTRRTSGSKTGREAEVAPTSPPVVPLKSRHLAATVTAQRPAHR
B9: Setdb2 (SET domain bifurcated histone lysine methyltransferase 2) (protein, UniProt Q8C267 1-713)
chain: MEEKNGDAKTFWMELQDDGKVDLMFEKTQNVLHSLKQKIKDGSATNGDYVQAMNLVNEATLSNTQTLEKGMFITYSNPEVNTHRSNHTPVTQSEQENKSSAVPSASCDNSCPKGCTIPSPGKKVFLPVKNKADNLVKKEAPLHISFHRHICSRTCLMETPLSLKGENPLQLPIRCHFQRRHAKTNSHSSALHVNYKTPCGRNLRNMEEVFHYLLETECNFLFTDNFSFNTYVQLTRNHPKQNEVVSDVDISNGVESVSIPFCNEIDNSKLPRFKYRNTVWPRIYHLNFSNMFSDSCDCSEGCIDIKKCACLQLTAKNAKACPLSSDGECAGYKYKRLQRLIPTGIYECNLLCKCNKQMCQNRVIQHGVRVRLQVFKSEKKGWGVRCLDDIDKGTFVCIYSGRLLRRATPEKTNIGENGREQQHIVKNSFSKKRKLEVVCSDCDAHCDSPKAEDCPPKLSGDLKEPAVEMNHRNISRTQHHSVIRRTKSKTTVFHYSEKNMGFVCSDSAAPEDKNGFKPAQEHVNSEARRAHEDLSSNPAGDSEDTQLTESDVIDITASREDSAPAYRCKHATIVDRKDTKQVLEVPGKKSQEEEPAASQSQQALCDEELPSERTKIPSASLMQLSKESLFLLDASKEGNVGRFLNHSCCPNLWVQNVFVETHDRNFPLVAFFTNRYVKARTELTWDYGYEAGATPAKEILCQCGFNKCRKKLI

Target: RanBP9-3xHA (Ran Binding Protein 9 fused to three copies of the HA tag) (mouse) (UniProt P69566)
Assay: affinity purification with mass spectrometry; anti-HA magnetic beads on 1 mg pre-cleared whole lung lysate of LysMBP9X mice, overnight at 4 °C, on-bead trypsin digestion, LC-MS/MS; hits significant (p ≤ 0.05) against HA-IP from WT mice and Ig-IPs

| binding | Binder |
| --- | --- |
| binds | B1 |
| binds | B2 |
| binds | B3 |
| binds | B4 |
| binds | B5 |
| binds | B6 |
| binds | B7 |
| binds | B8 |
| binds | B9 |

Results are given in words; binding and its absence hold for the method and conditions named. Binding seen in cells or lysates may run through a third protein. A yes stands for co-enrichment or nearness to the bait. Other partners may have been found. Tags and fused reporters may be left off the sequences shown.
